The source of these data is publication doi:10.1101/2020.10.06.328815.

Protein sequences, listed by entry. Tags and fused reporters are not part of them. Lines headed by an entry give the natural chain unless they say otherwise; changes in a name come on top. Residues count along the entry.
UniProt Q7M3K2, 1-140: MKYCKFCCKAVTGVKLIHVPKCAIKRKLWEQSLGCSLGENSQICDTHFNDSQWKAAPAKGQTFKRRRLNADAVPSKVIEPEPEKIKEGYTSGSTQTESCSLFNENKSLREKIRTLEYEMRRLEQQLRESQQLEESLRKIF

Assay [1] concerns the target truncated hTHAP9 H2 (residues 1-165) (human) (UniProt Q9H5L6). The experiment in a line: co-IP.
The target of assay [2] is truncated Drosophila P element transposase D (residues 1-140) (Drosophila) (UniProt Q7M3K2). The experiment in a line: proximity ligation.
For assay [3] the target is unchanged. The experiment in a line: co-IP.
Assay [4] addresses truncated hTHAP9 H1 (residues 1-176) (human) (UniProt Q9H5L6). The experiment in a line: proximity ligation.
The target of assay [5] is truncated hTHAP9 H2 (residues 1-165) (human) (UniProt Q9H5L6). Briefly: proximity ligation.
Assay [6] deals with full length human THAP9 (hTHAP9) (human) (UniProt Q9H5L6). The experiment in a line: pull-down.

No constants are given. Whether binding was seen depends on the method and setting. In cells and extracts the contact can be indirect. Some binding calls cover weakened binding; strength is not graded here.

With “H2(all)-H (L90A, L128A, L132A, L139A, L146A, L153A) (from UniProt Q9H5L6 1-165) (domain or fragment)”, the binding result in assay [1] was “binds”.
On the same count and under the same terms, the same measure for “L128A_H2H (from UniProt Q9H5L6 1-165) (domain or fragment)”: “binds”.
Same read-out and setting: under “L132A_H2H (from UniProt Q9H5L6 1-165) (domain or fragment)” stands “binds”; under “L139A_H2H (from UniProt Q9H5L6 1-165) (domain or fragment)”, “binds”.
On the same count and under the same terms, under “L146A+L153A_H2H (from UniProt Q9H5L6 1-165) (domain or fragment)” stands “binds”; under “hTHAP9 deletion mutant H_Del-H (residues 1-144) (from UniProt Q9H5L6 1-144) (domain or fragment)”, “binds”.
Regarding “truncated Drosophila P element transposase D (residues 1-140) (from UniProt Q7M3K2 1-140) (domain or fragment)”, the binding entry in assay [2] and in assay [3] was “binds” throughout.
Consider “truncated hTHAP9 H1 (residues 1-176) (from UniProt Q9H5L6 1-176) (domain or fragment)”, for which the binding result in assay [4] is “binds”.
As to “truncated hTHAP9 H2 (residues 1-165) (from UniProt Q9H5L6 1-165) (domain or fragment)”, the binding result in assay [5] and in assay [1] was “binds” each time.

B1: full length human THAP9 (hTHAP9) (protein, UniProt Q9H5L6 1-903)
chain: MTRSCSAVGCSTRDTVLSRERGLSFHQFPTDTIQRSKWIRAVNRVDPRSKKIWIPGPGAILCSKHFQESDFESYGIRRKLKKGAVPSVSLYKIPQGVHLKGKARQKILKQPLPDNSQEVATEDHNYSLKTPLTIGAEKLAEVQQMLQVSKKRLISVKNYRMIKKRKGLRLIDALVEEKLLSEETECLLRAQFSDFKWELYNWRETDEYSAEMKQFACTLYLCSSKVYDYVRKILKLPHSSILRTWLSKCQPSPGFNSNIFSFLQRRVENGDQLYQYCSLLIKSMPLKQQLQWDPSSHSLQGFMDFGLGKLDADETPLASETVLLMAVGIFGHWRTPLGYFFVNRASGYLQAQLLRLTIGKLSDIGITVLAVTSDATAHSVQMAKALGIHIDGDDMKCTFQHPSSSSQQIAYFFDSCHLLRLIRNAFQNFQSIQFINGIAHWQHLVELVALEEQELSNMERIPSTLANLKNHVLKVNSATQLFSESVASALEYLLSLDLPPFQNCIGTIHFLRLINNLFDIFNSRNCYGKGLKGPLLPETYSKINHVLIEAKTIFVTLSDTSNNQIIKGKQKLGFLGFLLNAESLKWLYQNYVFPKVMPFPYLLTYKFSHDHLELFLKMLRQVLVTSSSPTCMAFQKAYYNLETRYKFQDEVFLSKVSIFDISIARRKDLALWTVQRQYGVSVTKTVFHEEGICQDWSHCSLSEALLDLSDHRRNLICYAGYVANKLSALLTCEDCITALYASDLKASKIGSLLFVKKKNGLHFPSESLCRVINICERVVRTHSRMAIFELVSKQRELYLQQKILCELSGHINLFVDVNKHLFDGEVCAINHFVKLLKDIIICFLNIRAKNVAQNPLKHHSERTDMKTLSRKHWSSVQDYKCSSFANTSSKFRHLLSNDGYPFK
For B1, the binding result in assay [6] is “binds”.
